PubChem BioAssay AID652272 – Drosophila RNAi Screening Center, 2013

Assay: 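Genome-wide knock-down search for components of Hedgehog signalling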 (primary screen)
Cells: Drosophila clone 8 (Cl8) cells
Reagents: long dsRNA against Drosophila genes
Measured: 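Firefly light from a Hedgehog-responsive ptc promoter reporter and Renilla reference light, both read on a plate reader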
Scale: firefly Hh reporter signal: higher = more ptc reporter light; Renilla reference signal: higher = more Renilla control light
Call rule: 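Called a hit if the two-replicate mean z-score lies below -2 or above +3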
Meaning of the calls: active = hit: reporter lowered or raised; inactive = not a hit
The deposit covers about 21,000 reagents; shown is an unselected part of those that have a named target and a result. In the full data, 503 (2.4%) were called active. 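Raw plate light values, not normalised; calls rest on replicate z-scores that were not deposited; hits include reporter decreases as well as increases.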 A plus sign joins genes that one reagent is predicted to hit. Not stated in the record: the amount of reagent, the time to read-out.

target	dsRNA	firefly Hh reporter signal, replicate 1	firefly Hh reporter signal, replicate 2	firefly Hh reporter signal, replicate 3	Renilla reference signal, replicate 1	Renilla reference signal, replicate 2	call
lectin-28C	DRSC03010	94642	43755		2576	4149	inactive
heca	DRSC16964	52404	56218		1703	1818	inactive
CG8289	DRSC20101	1.05e5	1.02e5		2765	2245	inactive
Dscam3	DRSC14525	73677	89245		1909	2032	inactive
Dscam3	DRSC16376	79892	96240		2332	2777	inactive
MsR1	DRSC08615	1.13e5	39660		2711	3499	inactive
Sras	DRSC11287	51259	52497		5353	3648	inactive
CG9164	DRSC19087	3.47e5	1.33e5		18112	2914	inactive
CG9164	DRSC20162	1.54e5	1.04e5		3682	2320	inactive
Gpo3	DRSC01978	83365	54841		2251	5307	inactive
Mvl	DRSC16752	1.02e5	84761		4048	3270	inactive
atms	DRSC12310	1.92e5	1.53e5		4284	2713	inactive
cup	DRSC03516	1.01e5	77386		3706	2560	inactive
CG14383	DRSC14841	73216	80940		1207	1478	inactive
CG8036	DRSC16366	61466	86397		2156	2128	inactive
Gbp1	DRSC06592	79894	42066		2160	3637	inactive
CG43308	DRSC05893	1.24e5	2.14e5		3573	9357	inactive
YME1L	DRSC04378	1.03e5	39280		4013	1545	inactive
CG3982	DRSC10394	43497	13783	20800	1731	1349	inactive
CG33143	DRSC04151	1.03e5	92912		2134	7826	inactive
CG33143	DRSC04454	82359	52817		1456	4887	inactive
PpD6	DRSC00774	1.34e5	54688		3385	5914	inactive
cyr	DRSC18017	1.15e5	2.97e5		4226	9675	inactive
cyr	DRSC18018	86722	3.40e5		3403	11892	inactive
cyr	DRSC18021	84822	2.72e5		3063	9664	inactive
kis	DRSC00521	1.87e5	1.18e5		4120	3259	inactive
kis	DRSC00625	1.69e5	1.02e5		3472	1868	inactive
kis	DRSC00823	2.00e5	73642		5880	2352	inactive
CG32507	DRSC20421	7.25e5	5.20e5	2.77e5	38646	2762	inactive
Cpr11B	DRSC19859	1.10e5	66017		2546	1712	inactive
CG9997	DRSC16591	72953	91216		2192	2764	inactive
Cp7Fb	DRSC18034	75776	2.80e5		2387	10284	inactive
CG13284	DRSC02256	1.03e5	44881		2640	4801	inactive
CG18599	DRSC15357	7.39e5	7.94e5	1.52e5	46156	6544	inactive
lncRNA:CR43498	DRSC17621	4.49e5	1.57e5		19666	3946	inactive
Grl65a	DRSC08837	93706	2.10e5		2738	8257	inactive
CG12516	DRSC14524	1.42e5	1.25e5		5465	4444	inactive
CG15534	DRSC15070	58161	96422		2004	2197	inactive
Past1	DRSC16784	73824	1.14e5		2534	2865	inactive
snky	DRSC09838	44893	38292	51488	3691	3643	inactive
Atg8a	DRSC18024	1.00e5	3.13e5		2310	11100	inactive
CG1910	DRSC15400	1.09e5	89556		2504	2502	inactive
Ttc26	DRSC15591	5.76e5	82770		3541	3541	inactive
TfIIEbeta	DRSC08701	84871	38564		2331	1081	inactive
me31B	DRSC03569	45732	50289		2185	1808	inactive
PDZ-GEF	DRSC03231	1.40e5	46987		3472	4484	inactive
CG2063	DRSC06811	84093	37440		2812	4304	inactive
CG32832	DRSC01562	1.05e5	1.94e5		3260	10083	inactive
CG31975 + ovm	DRSC00323	1.10e5	78260		2923	2381	inactive
Exo70	DRSC10774	31043	48392		3276	3175	inactive
CG8028	DRSC20075	1.34e5	1.78e5		5382	7872	inactive
CG43100 (retired record)	DRSC01001	5.07e5	1.43e5		22217	6096	inactive
Tctp	DRSC15649	48150	1.27e5		1829	3392	inactive
fd59A	DRSC04685	72491	54420		3239	2185	inactive
CG12054	DRSC14467	24688	16500		1062	913	active
Orc5	DRSC03390	97009	36825		2761	3639	inactive
CG31759	DRSC01230	5.99e5	2.19e5		30935	8008	inactive
Smr	DRSC19495	38952	24387		1075	741	inactive
Smr	DRSC20288	27732	61335		1840	4797	active
CG4892	DRSC01937	1.47e5	1.24e5		3737	7522	inactive
Fur2	DRSC19817	59476	1.55e5		1348	6214	inactive
CG3819	DRSC10378	83968	1.28e5		2788	3510	inactive
l(3)72Dr	DRSC10478	1.30e5			4960	3589	inactive
Msr-110	DRSC11227	1.05e5	82644		4597	3488	inactive
RabGGTb	DRSC00804	69459	71163		3600	3025	inactive
CG34247	DRSC09933	1.73e5			7191	4811	inactive
GstE10	DRSC06671	90864	44658		2803	3521	inactive
sut4	DRSC07703	72204	48688		2896	2281	inactive
CG18675	DRSC08536	80612	47877		1962	3321	inactive
MAN1	DRSC04342	1.21e5	71654		4587	2867	inactive
Adck5	DRSC10890	37207	50861	72786	4471	5521	inactive
Gbs-76A	DRSC11081	1.34e5	73365		5539	2912	inactive
Blos3	DRSC09573	6.11e5	1.25e5		5543	5543	inactive

11 entries from above, reduced to “firefly Hh reporter signal, replicate 1”.
CG12516 [DRSC14524]	1.42e5
CG15534 [DRSC15070]	58161
Past1 [DRSC16784]	73824
snky [DRSC09838]	44893
Atg8a [DRSC18024]	1.00e5
CG1910 [DRSC15400]	1.09e5
Ttc26 [DRSC15591]	5.76e5
TfIIEbeta [DRSC08701]	84871
me31B [DRSC03569]	45732
PDZ-GEF [DRSC03231]	1.40e5
CG2063 [DRSC06811]	84093
